# In patent publication US20260115216A1, “NUCLEIC ACID PRECURSOR” (priority 2022, published 2026):
# At least one compound was matched to its structure with a doubt left.
# What was measured:
# [1] = tested on: AMP-activated protein kinase (AMPK); assay: Intracellular ATP levels using AMPK inhibitor (Test Example 7); settings: normal human dermal fibroblasts, ATP prodrug 100 μM + Dorsomorphin 12.5 μM, 24 hours
# nematodes = settings: nematode, literature values of other drugs; cited from earlier work
Compound,effect of AMPK inhibitor on ATP production due to the ATP prodrug [1],Lifespan Extension Rate (nematodes) [%]
"c1cc(-c2cnn3cc(-c4ccc(OCCN5CCCCC5)cc4)cnc23)ccn1 [Dorsomorphin, reference compound]",inhibited a portion of the ATP production,–
CO[C@H]1C[C@@H]2CC[C@@H](C)[C@@](O)(O2)C(=O)C(=O)N2CCCC[C@H]2C(=O)O[C@H]([C@H](C)C[C@@H]2CC[C@@H](O)[C@H](OC)C2)CC(=O)[C@H](C)/C=C(\C)[C@@H](O)[C@@H](OC)C(=O)[C@H](C)C[C@H](C)/C=C/C=C/C=C/1C [Rapamycin],–,126
